# Percent effect of library compounds

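Assay of Toxoplasma gondii numbers, read through their beta-galactosidase reporter with a colour substrate. Compounds at 50 µM. Higher reads as fewer parasites (inferred from which compounds were picked for retests). Of about 18,000 compounds tested this way, about 170 (0.94%) reached 50% or more in at least one test.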

Values are the deposited “Percent Effect”, in %. The controls that fix the scale are not given in the record; negative values are as filed. This is an unselected part of the compounds tested.

{"smiles": "O=C1NCCCC12CCN(C/C=C/c1ccccc1)C2", "stereo": "centres unmarked", "effect": -12.18}
{"smiles": "CCc1ccc(CNC(C)(CO)CO)cc1", "effect": 11.2}
{"smiles": "CCn1ncnc1C(C)NC(=O)c1sc(NC)nc1C", "stereo": "centres unmarked", "effect": -12.25}
{"smiles": "CCC(O)(CN)c1ccc(Br)cc1", "stereo": "centres unmarked", "effect": -4.114}
{"smiles": "CC(CN)c1ccc(F)cc1", "stereo": "centres unmarked", "effect": 9.86}
{"smiles": "Cc1cc(C(=O)NCC(=O)NC2CC2)c(C)o1", "effect": -9.518}
{"smiles": "CCOCCCC(=O)NCC(O)Cc1ccccc1", "stereo": "centres unmarked", "effect": 7.625}
{"smiles": "CN(CCn1cccn1)C(=O)CCc1ccnn1C", "effect": 13.47}
{"smiles": "CCc1nsc(N2CCN(CC(O)COC)CC2)n1", "stereo": "centres unmarked", "effect": 1.46}
{"smiles": "CN(CC1CC1)C(=O)c1nn(C)c(=O)c2ccccc12", "effect": 4.403}
{"smiles": "CCN(CC)C1CCN(C(=O)Nc2cccnn2)C1", "stereo": "centres unmarked", "effect": -2.249}
{"smiles": "CN(CC(=O)NC(N)=O)C1CCCC1", "effect": -2.797}
{"smiles": "CCC[C@H]1CN(c2nc(C)ccc2C(=O)O)C[C@@H]1N", "effect": -13.54}
{"smiles": "CCC(NC(=O)Cc1cnc[nH]c1=O)c1ccncc1", "stereo": "centres unmarked", "effect": 7.308}
{"smiles": "CC(O)(CNC(=O)NC1CCSCC1)c1ccsc1", "stereo": "centres unmarked", "effect": -3.955}
{"smiles": "CN1CCN(c2cc(C#N)ccn2)CC1", "effect": -13.71}
{"smiles": "COCCNC(=O)CCN", "effect": -17.86}
{"smiles": "O=C(CC(F)(F)F)Nc1ccc(N2CCNC2=O)cc1", "effect": -0.5061}
{"smiles": "CC(CC(=O)NC1CC1)NC(=O)c1ccccc1", "stereo": "centres unmarked", "effect": 0.2789}
{"smiles": "C=C(C)Cn1c(S(C)(=O)=O)nc2ccccc21", "effect": 5.586}
{"smiles": "Cc1ocnc1CNC(=O)C1CC=CC1", "effect": 3.627}
{"smiles": "O=C(Nc1cccc(N2CCNC2=O)c1)C1CCCO1", "stereo": "centres unmarked", "effect": -5.415}
{"smiles": "CCN(CC)C1CCN(C(=O)Cc2cccnc2)CC1", "effect": -5.133}
{"smiles": "CCC(NC(=O)c1cnn(C(C)C)c1)c1ccncc1", "stereo": "centres unmarked", "effect": 5.615}
{"smiles": "Cc1cccc2[nH]c(C(C)O)nc12", "stereo": "centres unmarked", "effect": -12.62}
{"smiles": "COc1ccc(CCN2CCNCC2)cc1", "effect": 9.93}
{"smiles": "NCCc1n[nH]c(=O)n1CCc1ccccc1", "effect": -4.277}
{"smiles": "CCN1CCCC(CNC(=O)Nc2cc(C)nn2C)C1", "stereo": "centres unmarked", "effect": -10.71}
{"smiles": "c1cc2c(cc1CN1CCOCC1)OCO2", "effect": -8.924}
{"smiles": "Cc1cc(CNC(=O)C2CCCNCC2)n(C)n1", "stereo": "centres unmarked", "effect": -1.249}
{"smiles": "CSCc1cccc(CNC(=O)c2cc[nH]n2)c1", "effect": -3.721}
{"smiles": "O=c1c2cccc(F)c2ncn1CCOCCO", "effect": 6.197}
{"smiles": "CN(C)c1ccnc(NC(=O)c2cnsn2)c1", "effect": 12.63}
{"smiles": "O=C(NCCN1CCCCC1)NCC1CCS(=O)(=O)C1", "stereo": "centres unmarked", "effect": -6.889}
{"smiles": "CCn1c(N)nc2cc(CO)ccc21", "effect": 2.12}
{"smiles": "CSCc1nc(CNC(=O)c2cc(C)no2)cs1", "effect": -20.7}
{"smiles": "Nc1nc(N2CCCNC(=O)C2)cc([C@H]2C[C@@H](O)C2)n1", "effect": 1.45}
{"smiles": "CCc1cnc(C(=O)NCC(O)CO)s1", "stereo": "centres unmarked", "effect": 2.712}
{"smiles": "CN(CCOc1ccc(F)cc1)CCC(N)=O", "effect": 2.57}
{"smiles": "CNC(=O)c1ccc(S(=O)(=O)NCC(C)C)cc1", "effect": -6.605}
{"smiles": "NCC(=O)Nc1ccc2c(c1)OCCO2", "effect": -5.622}
{"smiles": "N#Cc1cccc(CN2CCCC(O)C2)c1", "stereo": "centres unmarked", "effect": -3.835}
{"smiles": "CCOC(C)C(=O)NCCc1cncn1C", "stereo": "centres unmarked", "effect": 6.862}
{"smiles": "CSc1ccccc1NC(=O)Cn1ccc(=O)[nH]c1=O", "effect": -4.678}
{"smiles": "CC(C)NC(=O)Nc1cccc(S(=O)(=O)C(F)F)c1", "effect": -2.971}
{"smiles": "O=C(CSc1nnc[nH]1)NCc1ccc(Br)c(F)c1", "effect": -12.01}

Data taken from ChEMBL document CHEMBL3988442, “University of Dundee, Small-Polar-MMV Screening Library” (2021).